# From PMC4483769
# Sequences of proteins named here, by UniProt entry; tags and fusion partners are left off.
# UniProt P61006: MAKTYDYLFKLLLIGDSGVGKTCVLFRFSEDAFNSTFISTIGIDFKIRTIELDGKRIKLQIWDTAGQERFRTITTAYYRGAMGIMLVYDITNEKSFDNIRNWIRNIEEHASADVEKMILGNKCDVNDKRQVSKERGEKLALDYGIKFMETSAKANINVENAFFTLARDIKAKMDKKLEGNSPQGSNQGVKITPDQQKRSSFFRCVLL
# UniProt P60953: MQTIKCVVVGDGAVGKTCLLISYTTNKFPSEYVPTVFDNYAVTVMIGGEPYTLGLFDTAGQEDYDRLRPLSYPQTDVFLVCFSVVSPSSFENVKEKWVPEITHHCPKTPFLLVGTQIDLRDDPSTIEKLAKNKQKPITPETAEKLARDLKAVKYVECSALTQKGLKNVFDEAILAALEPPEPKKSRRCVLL
# Results are given in words; binding and its absence hold for the method and conditions named. Binding seen in cells or lysates may run through a third protein. Some binding calls cover weakened binding; strength is not graded here. Sequences can lack the tags named with a protein.
# T1: 3×Flag-GPR177 (UniProt Q5T9L3)
# T1 sequence: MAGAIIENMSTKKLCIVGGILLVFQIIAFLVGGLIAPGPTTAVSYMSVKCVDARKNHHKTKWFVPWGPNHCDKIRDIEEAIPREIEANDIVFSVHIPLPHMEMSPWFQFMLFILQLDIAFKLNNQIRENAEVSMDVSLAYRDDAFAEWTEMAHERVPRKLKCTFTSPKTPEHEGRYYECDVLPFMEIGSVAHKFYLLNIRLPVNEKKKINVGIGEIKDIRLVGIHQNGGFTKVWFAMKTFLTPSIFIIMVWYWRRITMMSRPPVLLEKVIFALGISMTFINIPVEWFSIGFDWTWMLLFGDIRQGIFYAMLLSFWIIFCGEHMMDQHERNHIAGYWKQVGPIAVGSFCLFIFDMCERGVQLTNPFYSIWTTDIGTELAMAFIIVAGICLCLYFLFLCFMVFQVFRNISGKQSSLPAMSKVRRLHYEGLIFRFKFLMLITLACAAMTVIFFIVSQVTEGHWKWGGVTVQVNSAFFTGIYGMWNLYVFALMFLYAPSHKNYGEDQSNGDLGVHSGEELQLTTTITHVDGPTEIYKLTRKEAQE
# What was measured:
# [1] = target: T1, 3×Flag-GPR177; test: co-IP; anti-Flag M2 affinity gel, 2 mg total lysate of 3×Flag-GPR177 stable HeLa cells, 8 h at 4°C, washed three times with 50 mM Tris HCl pH 7.5, 150 mM NaCl, 1 mM EDTA, 1% Triton X-100, eluted with 3×Flag peptides; precipitates blotted for vesicular markers
# [2] = target: GST-RAB8A (UniProt P61006); test: pull-down; GST or GST fusion proteins on glutathione-agarose beads incubated with 1 mg lysate of 3×Flag-GPR177 stable HeLa cells for 1 h at 4°C, washed with PBS with 1% Triton X-100; anti-Flag western blot; only the target purified
# [3] = target: GST-CDC42 (UniProt P60953); test: as above
binding [1],binding [2],binding [3],Molecule
binds,,,RAB8A (from UniProt P61006 1-207)
,binds,no binding,"3×Flag-GPR177 (protein, UniProt Q5T9L3 1-541) MAGAIIENMSTKKLCIVGGILLVFQIIAFLVGGLIAPGPTTAVSYMSVKCVDARKNHHKTKWFVPWGPNHCDKIRDIEEAIPREIEANDIVFSVHIPLPHMEMSPWFQFMLFILQLDIAFKLNNQIRENAEVSMDVSLAYRDDAFAEWTEMAHERVPRKLKCTFTSPKTPEHEGRYYECDVLPFMEIGSVAHKFYLLNIRLPVNEKKKINVGIGEIKDIRLVGIHQNGGFTKVWFAMKTFLTPSIFIIMVWYWRRITMMSRPPVLLEKVIFALGISMTFINIPVEWFSIGFDWTWMLLFGDIRQGIFYAMLLSFWIIFCGEHMMDQHERNHIAGYWKQVGPIAVGSFCLFIFDMCERGVQLTNPFYSIWTTDIGTELAMAFIIVAGICLCLYFLFLCFMVFQVFRNISGKQSSLPAMSKVRRLHYEGLIFRFKFLMLITLACAAMTVIFFIVSQVTEGHWKWGGVTVQVNSAFFTGIYGMWNLYVFALMFLYAPSHKNYGEDQSNGDLGVHSGEELQLTTTITHVDGPTEIYKLTRKEAQE"
